Test results from paper PMC8371148.
Results are given in words; binding and its absence hold for the method and conditions named. Some binding calls cover weakened binding; strength is not graded here.

Chains of the proteins cited; added tags and fusions are not shown.
UniProt P08670: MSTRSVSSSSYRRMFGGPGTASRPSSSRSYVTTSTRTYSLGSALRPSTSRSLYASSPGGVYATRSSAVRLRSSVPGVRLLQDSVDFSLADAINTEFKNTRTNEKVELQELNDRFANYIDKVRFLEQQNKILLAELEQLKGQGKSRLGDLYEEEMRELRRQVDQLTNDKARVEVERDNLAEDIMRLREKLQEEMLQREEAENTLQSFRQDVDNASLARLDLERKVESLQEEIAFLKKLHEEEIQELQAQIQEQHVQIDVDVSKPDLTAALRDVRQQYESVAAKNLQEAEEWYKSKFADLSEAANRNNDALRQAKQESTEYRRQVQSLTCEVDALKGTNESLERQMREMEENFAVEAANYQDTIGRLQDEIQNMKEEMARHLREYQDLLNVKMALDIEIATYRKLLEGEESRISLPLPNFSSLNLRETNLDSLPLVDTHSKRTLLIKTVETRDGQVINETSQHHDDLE

Molecular target: vimentin (human (endogenous in MDA-MB-231 and U2OS)) (UniProt P08670)
Experiment: single-cell size-exclusion electrophoresis fractionation (SIFTER) with in-gel immunoprobing; single cells lysed in microwells of an 8%T polyacrylamide gel in F-actin stabilization buffer (10 mM Tris-HCl, 1% Triton X-100, 2 mM MgCl2, 0.5 mM DTE, pH 7.4); PAGE at 30 V cm^-1 for 45-60 s; complexes larger than ~740 kDa are retained in the microwell, then depolymerized (SDS, deoxycholate, 8 M urea) and run in the opposite direction; cells also treated with Latrunculin A, Jasplakinolide, DMSO or heat shock

Substance: vimentin (from UniProt P08670 1-466)
- binding: binds
